The assay relates to L1210 leukemia ip in BDF1 mice, survival T/C. Briefly: NCI In Vivo Anticancer Drug Screen. Data for tumor model L1210 Leukemia (intraperitoneal) in B6D2F1 (BDF1) mice. The conditions noted are these: T/C endpoint: mean survival time, higher T/C = longer survival.
Setting [1] is: dose: 100.0 mg/kg/injection, schedule: Q04DX003 (ip), vehicle: Klucel (hydroxypropylcellulose) (HPC).
Setting [2] is: dose: 200.0 mg/kg/injection, schedule: Q04DX003 (ip), vehicle: Klucel (hydroxypropylcellulose) (HPC).
Where [3] appears, read: dose: 400.0 mg/kg/injection, schedule: Q01DX009 (ip), vehicle: Klucel (hydroxypropylcellulose) (HPC).
Setting [4] is: dose: 400.0 mg/kg/injection, schedule: Q04DX003 (ip), vehicle: Klucel (hydroxypropylcellulose) (HPC).
Where [5] appears, read: dose: 40.0 mg/kg/injection, schedule: Q01DX001 (ip), vehicle: saline.
[6] abbreviates: dose: 200.0 mg/kg/injection, schedule: Q01DX001 (ip), vehicle: saline.
[7] abbreviates: dose: 400.0 mg/kg/injection, schedule: Q01DX001 (ip), vehicle: saline.
Where [8] appears, read: dose: 60.0 mg/kg/injection, schedule: Q01DX001 (ip), vehicle: saline.
The mark [9] stands for this setting: dose: 100.0 mg/kg/injection, schedule: Q01DX009 (ip), vehicle: saline with Tween-80.
Setting [10] is: dose: 200.0 mg/kg/injection, schedule: Q01DX009 (ip), vehicle: saline with Tween-80.
Setting [11] is: dose: 400.0 mg/kg/injection, schedule: Q04DX003 (ip), vehicle: saline.
Where [12] appears, read: dose: 300.0 mg/kg/injection, schedule: Q01DX001 (ip), vehicle: saline.
Setting [13] is: dose: 150.0 mg/kg/injection, schedule: Q01DX001 (ip), vehicle: saline.
[14] abbreviates: dose: 400.0 mg/kg/injection, schedule: Q01DX009 (ip), vehicle: saline with Tween-80.

The structures appear in SMILES notation. The list does not hold the whole screen: it is rich in T/C values a quarter to a half above the control, in often repeated tests (any T/C) and in doses without a T/C. Other doses and runs of a compound stand elsewhere. T/C is the treated group as % of the vehicle group. Some doses have a count of surviving animals in place of a T/C: the source holds a T/C of zero for them, seemingly a mark for toxic or unscored doses. Some survivor counts are full or nearly so, which does not show that the dose was tolerated: the source hardly ever lists a survival T/C far under the control, and the zero likely stands for such cases as well. Survivors were counted at the toxicity check, usually on the fifth day, unless a day is given; later deaths do not show. Schedules are NCI's codes, taken here to give the interval after Q, in days (D) or hours (H), and the number of doses after X. Some entries were tested several times; the results are listed from low to high. Some molecules as drawn cover several salts, stereoisomers or complexes of the source; a dose is that of the sample tested. Some schedules carry Z or #; the key to these is not given. Where survival is the endpoint, the PubChem record calls one and a half times the control and up active, and a quarter to a half above the control has no call in these data; cut-offs in other NCI protocols can differ. Some T/C values are followed by the survivors on the day toxicity was checked, most often the fifth; without a count, all were alive then.

From PubChem BioAssay AID248 (DTP/NCI, 2004) come the findings set out here.

Consider `CC1(C)C(=NO)C(C)(C)C1=NO`, for which the survivor count reads like this: (dose: 25.0 mg/kg/injection, schedule: Q04DX003 (ip), vehicle: Klucel (hydroxypropylcellulose) (HPC)) 3 of 6; (dose: 50.0 mg/kg/injection, schedule: Q01DX009 (ip), vehicle: Klucel (hydroxypropylcellulose) (HPC)) 1 of 6; (dose: 100.0 mg/kg/injection, schedule: Q01DX009 (ip), vehicle: Klucel (hydroxypropylcellulose) (HPC)) 1 of 6; under setting [1], 4 of 6; (dose: 200.0 mg/kg/injection, schedule: Q01DX009 (ip), vehicle: Klucel (hydroxypropylcellulose) (HPC)) 0 of 6; under setting [2], 3 of 6. For the same compound, the survivor count is, setting by setting: under setting [3], 0 of 6; under setting [4], 1 of 6.

In the case of `CC(C#N)N(C)C` (centres undefined), the survivor count is, setting by setting: under setting [5], 0 of 4; (dose: 50.0 mg/kg/injection, schedule: Q01DX001 (ip), vehicle: saline) 0 of 4; (dose: 80.0 mg/kg/injection, schedule: Q01DX001 (ip), vehicle: saline) 0 of 4; (dose: 100.0 mg/kg/injection, schedule: Q01DX001 (ip), vehicle: saline) 0 of 4; under setting [6], 0 of 4; under setting [7], 0 of 4.

Consider `CO[C@H]1C=CC2=CCN3CCC4=C(CC(=O)OC4)[C@]23C1`, for which the survivor count under setting [5] was 0 of 4 and the survivor count under setting [8] was 0 of 4.

Regarding `O=C(CCl)N1CC2CCC(CC2)C1`, the survivor count is, setting by setting: under setting [2], 5 of 6; under setting [4], 0 of 6.

For the compound `Cc1c(Cl)cccc1NC(=O)Nc1cccc2c(O)cccc12`, the survivor count reads like this: (dose: 50.0 mg/kg/injection, schedule: Q01DX009 (ip), vehicle: saline with Tween-80) 3 of 3; under setting [9], 3 of 3 and 6 of 6; (dose: 100.0 mg/kg/injection, schedule: Q04DX003 (ip), vehicle: saline with Tween-80) 6 of 6; under setting [10], 3 of 3 and 6 of 6; (dose: 400.0 mg/kg/injection, schedule: Q04DX003 (ip), vehicle: saline with Tween-80) 6 of 6. For the same compound, the T/C is 89 and 90 % of control under setting [9]; 86 and 86 % of control [2 of 3 alive] under setting [10].

On to `CC(c1ccccc1)n1cncc1C(=O)N(C)C` (centres undefined), for which, under setting [11], the survivor count is given as 0 of 6.

Regarding `Cc1ccc(NC(=O)Nc2ccccc2C)c(C)c1`, under setting [3], the survivor count was 6 of 6.

For `CC1=CP(=O)(O)CC1`, the survivor count under setting [11] was 1 of 6.

For `COC(=O)C(N)Cc1ccc(O)c(N(CCCl)CCCl)c1` (centres undefined), the T/C is 125 % of control (dose: 0.02 mg/kg/injection, schedule: Q01DX009 (ip), vehicle: saline); 134 % of control (dose: 0.05 mg/kg/injection, schedule: Q01DX009 (ip), vehicle: saline); 149 % of control (dose: 0.1 mg/kg/injection, schedule: Q01DX009 (ip), vehicle: saline). Further, the survivor count is, setting by setting: (dose: 2.0 mg/kg/injection, schedule: Q01DX009 (ip), vehicle: saline) 6 of 6; (dose: 4.4 mg/kg/injection, schedule: Q01DX009 (ip), vehicle: saline) 5 of 6; (dose: 6.6 mg/kg/injection, schedule: Q01DX009 (ip), vehicle: saline) 4 of 6; (dose: 10.0 mg/kg/injection, schedule: Q01DX009 (ip), vehicle: saline) 3 of 6; (dose: 15.0 mg/kg/injection, schedule: Q01DX001 (ip), vehicle: saline) 2 of 6; (dose: 15.0 mg/kg/injection, schedule: Q01DX009 (ip), vehicle: saline) 1 of 6. In addition, the survivor count was 1 of 6 (dose: 30.0 mg/kg/injection, schedule: Q01DX001 (ip), vehicle: saline); 0 of 6 under setting [8]; 0 of 6 (dose: 75.0 mg/kg/injection, schedule: Q01DX001 (sc), vehicle: saline); 0 of 6 (dose: 150.0 mg/kg/injection, schedule: Q01DX001 (sc), vehicle: saline); 0 of 6 (dose: 300.0 mg/kg/injection, schedule: Q01DX001 (sc), vehicle: saline).

For `O=NN(CCCl)C(=O)N[C@@H]1CCC[C@@H](O)C1`, the T/C was 125 % of control (dose: 8.0 mg/kg/injection, schedule: Q01DX001 (ip), vehicle: saline with Tween-80) and 146 % of control (dose: 67.0 mg/kg/injection, schedule: Q01DX001 (ip), vehicle: saline with Tween-80). The survivor count reads like this: (dose: 100.0 mg/kg/injection, schedule: Q01DX001 (ip), vehicle: saline with Tween-80) 10 of 10; (dose: 150.0 mg/kg/injection, schedule: Q01DX001 (ip), vehicle: saline with Tween-80) 9 of 10.

Turning to `CC(O)C(O)C(O)C(O)C(c1ccc(Cl)cc1)c1ccc(Cl)cc1` (centres undefined), the survivor count under setting [6] is recorded as 1 of 4 and the survivor count under setting [7] is recorded as 0 of 4.

For `CCC(CC)NCCOC(=O)c1ccc(N)cc1`, the survivor count under setting [12] is on record as 0 of 6.

For `CCCCNCCOC(=O)c1ccc(N)cc1`, the survivor count runs as follows: under setting [13], 0 of 6; under setting [12], 0 of 6.

For the compound `CCCCCCCCCCCC[N+](C)(C)C` (tested in a mixture with another compound), the survivor count runs as follows: (dose: 20.0 mg/kg/injection, schedule: Q04DX003 (ip), vehicle: Klucel (hydroxypropylcellulose) (HPC)) 6 of 6; (dose: 25.0 mg/kg/injection, schedule: Q04DX003 (ip), vehicle: saline) 6 of 6; (dose: 28.0 mg/kg/injection, schedule: Q01DX009 (ip), vehicle: saline) 4 of 6; (dose: 40.0 mg/kg/injection, schedule: Q01DX009 (ip), vehicle: saline) 2 of 6; (dose: 50.0 mg/kg/injection, schedule: Q04DX003 (ip), vehicle: saline) 5 of 6; (dose: 60.0 mg/kg/injection, schedule: Q01DX015 (ip), vehicle: saline) 0 of 6. Besides, the survivor count is, setting by setting: (dose: 75.0 mg/kg/injection, schedule: Q01DX001 (ip), vehicle: saline) 3 of 6; (dose: 80.0 mg/kg/injection, schedule: Q04DX003 (ip), vehicle: Klucel (hydroxypropylcellulose) (HPC)) 3 of 6; (dose: 100.0 mg/kg/injection, schedule: Q04DX003 (ip), vehicle: saline) 0 of 6 and 1 of 6; under setting [13], 1 of 6; (dose: 200.0 mg/kg/injection, schedule: Q04DX003 (ip), vehicle: saline) 0 of 6; under setting [12], 1 of 6. Also, the survivor count under setting [11] was 0 of 6.

As for `COC(=O)/C=C\C=C(\CBr)C(=O)OC`, the survivor count is reported as 0 of 6 under setting [1], 0 of 6 under setting [2] and 0 of 6 under setting [4].

In the case of `O=[N+]([O-])c1ccc2nc[nH]c2c1`, the survivor count was 5 of 6 under setting [9] and 0 of 6 (dose: 200.0 mg/kg/injection, schedule: Q01DX Z (ip), vehicle: distilled water + alcohol).

In the case of `CCCCOC(=S)SSC(=S)OCCCC`, the survivor count runs as follows: under setting [10], 2 of 6; under setting [14], 0 of 6.

In the case of `Nc1ccc([I+]c2ccccc2)cc1`, the survivor count is given as 0 of 4 under setting [6] and 0 of 4 under setting [7].

Regarding `CCC(C)C(NC(=O)OCc1ccccc1)C(=O)ON1C(=O)CCC1=O` (centres undefined), the survivor count under setting [14] was 4 of 6.
